Where a name gives a salt, the structure may show the parent alone. This is one part of the list. Single values are uncertain here, since repeats match poorly.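 The human kidney-derived cells carry a stably integrated construct of eight TEAD-binding elements driving luciferase, read by luminescence in a drug-repurposing library screen. A compound counts as a hit when its signal is more than five robust Z scores above the plate mean.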
System: HEK293A TEAD-LUC reporter
Assay: TEAD-luciferase reporter activity (YAP activation), robust Z score vs plate; higher = stronger YAP/TEAD activation
Settings: 24 h

Row | SMILES | TEAD-luciferase reporter activity (compound concentration: 200 nM) | TEAD-luciferase reporter activity (compound concentration: 2 uM) | TEAD-luciferase reporter activity (compound concentration: 10 uM)
1 | Oc1c(I)cc(I)cc1I | inactive: -0.409 | inactive: -0.546 | inactive: -1.05
2 | N#Cc1cn([C@@H]2O[C@H](CO)[C@H](O)[C@@H]2O)c2ncnc(N)c12 [Toyocamycin] | inactive: 0.168 | inactive: -1.12 | active: 7.58
3 | CC[C@@H](CO)NC(=O)[C@@H]1C=C2c3cccc4c3c(cn4C)C[C@H]2N(C)C1 [Methysergide maleate] | inactive: -1.11 | inactive: -0.764 | inactive: -0.164
4 | c1cncc(N2CCC3(CCCN3)C2)c1 (centres undefined) | inactive: 0.202 | inactive: 1.38 | inactive: -0.76
5 | CN1CCCC(=C(c2cccs2)c2cccs2)C1 | inactive: 0.374 | active: 5.04 | inactive: 2.48
6 | Clc1cccc(SC2CCNCC2)n1 [anpirtoline] | inactive: -0.227 | inactive: 0.187 | inactive: -0.261
7 | Cc1nc2cc(NC(=O)c3cc4cnccc4n3Cc3cccc(F)c3)ccc2n1C | inactive: -1.06 | inactive: 0.0158 | inactive: -0.484
8 | Cc1ncc(CNC(=O)N(CCCl)N=O)c(N)n1 [nimustine] | inactive: 0.634 | inactive: -0.163 | inactive: 0.0663
9 | CCOC(=O)C1(c2ccccc2)CCN(CCN2CCOCC2)CC1 | inactive: -0.384 | inactive: -1.18 | inactive: -1.8
10 | CN1Cc2cc(Cl)ccc2-n2c(nnc2C2CCC(Oc3ccccn3)CC2)C1 (centres undefined) | inactive: -0.602 | inactive: -0.751 | inactive: 1.55
11 | O=P1(NCCCl)OCCC(OO)N1CCCl (centres undefined) [4-Hydroperoxyifosfamide] | inactive: -0.157 | inactive: -0.0779 | inactive: 1.37
12 | Clc1ccc(OCC2=NCCN2)cc1Cl [fenmetozole] | inactive: -0.185 | inactive: -0.906 | inactive: -0.371
13 | CCCN(CCC)Cc1nc(-c2ncn3c2CN(C)C(=O)c2cc(F)ccc2-3)no1 | inactive: -0.555 | inactive: -0.0979 | inactive: 2.72
14 | Clc1ccc([C@@]23CNC[C@@H]2C3)cc1Cl | inactive: -0.632 | inactive: -0.858 | inactive: 0.369
15 | CC(=O)O[C@H]1CC[C@@]2(C)C(=CC[C@H]3[C@@H]4CC[C@H](OC(C)=O)[C@@]4(C)CC[C@@H]32)C1 [Androstenediol diacetate] | inactive: -0.781 | inactive: 1.21 | inactive: 0.551
16 | CC(C)(NC(=O)O[C@@H]1CN2CCC1CC2)c1csc(-c2ccc(F)cc2)n1 | inactive: -1.48 | inactive: -1.32 | inactive: 1.59
17 | C/C(=C\C(N)C(=O)O)CP(=O)(O)O (centres undefined) | inactive: -1.36 | inactive: -0.859 | inactive: 0.325
18 | C[C@]12CCCCC1=CC[C@@H]1[C@@H]2CC[C@]2(C)C(=O)[C@H](F)C[C@@H]12 [Fluasterone] | inactive: -0.542 | inactive: 0.356 | inactive: -1
19 | CC(C)[C@H](NC(=O)[C@H](C(C)C)N(C)C)C(=O)N(C)[C@H](C(=O)N1CCC[C@H]1C(=O)N1CCC[C@H]1C(=O)NCc1ccccc1)C(C)C [Cemadotin hydrochloride] | inactive: -0.9 | active: 6.35 | inactive: 3.75
20 | CCC1CN(C)CCC1(OC(C)=O)c1ccccc1 (centres undefined) | inactive: -3.14 | inactive: -1.4 | inactive: -0.14
21 | CCN(CC)C(=O)c1ccc(C(c2ccccc2)N2C[C@@H](C)N(Cc3cccc(F)c3)C[C@@H]2C)cc1 (some centres undefined) | inactive: -0.626 | inactive: -1.33 | inactive: -0.796
22 | Fc1ccc(C(OCCN2CCN(CCCc3ccccc3)CC2)c2ccc(F)cc2)cc1 [vanoxerine] | inactive: -0.248 | inactive: -0.427 | inactive: -2.87
23 | COC[C@@H](NC(C)=O)C(=O)NCc1ccccc1 [lacosamide] | inactive: -0.764 | inactive: 1.97 | inactive: -0.413
24 | O=c1ccc2cc(OC3OC(CO)C(O)C(O)C3O)c(O)cc2o1 (centres undefined) [Aesculin (Esculetin_:_ Cichorigenin_:_ Esculetol)] |  | inactive: 0.0841 | 
25 | CC12CCC3c4ccc(OC(=O)N(CCCl)CCCl)cc4CCC3C1CCC2OP(=O)([O-])[O-] (centres undefined) [estramustine phosphate sodium] | inactive: -0.396 | inactive: -1.02 | inactive: -0.468
26 | O=C(Nc1ccccc1F)N[C@H]1N=C(c2ccccc2)c2ccccc2NC1=O | inactive: -2.21 | inactive: -0.993 | inactive: -1.21
27 | COc1ccc2c3c1OC1C(O)C=CC4C(C2)[N+](C)(C)CCC341 (centres undefined) | inactive: 0.22 |  | inactive: 2.45
28 | COc1ccc2c3c1OC1C(O)C=CC4C(C2)[N+](C)(C)CCC341 (centres undefined) [Codeine methylbromide] |  | inactive: 1.25 | 

In another format: results already given
Row,SMILES,TEAD-luciferase reporter activity (compound concentration: 200 nM),TEAD-luciferase reporter activity (compound concentration: 2 uM),TEAD-luciferase reporter activity (compound concentration: 10 uM)
13,CCCN(CCC)Cc1nc(-c2ncn3c2CN(C)C(=O)c2cc(F)ccc2-3)no1,inactive: -0.555,inactive: -0.0979,inactive: 2.72
14,Clc1ccc([C@@]23CNC[C@@H]2C3)cc1Cl,inactive: -0.632,inactive: -0.858,inactive: 0.369

From the supplement of paper PMC10735217
